Assay results taken from the supplement of paper PMC5770031.
The other results are listed elsewhere or left out. Single values are uncertain here, since repeats match poorly.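 Flies heterozygous for the ATM8 allele over a balancer chromosome carrying normal ATM were mated with each other on treated food. Parents laid eggs for 5–6 days and the young then developed for about 12 days, so both parents and larvae ate the compound. The read-out is the share of all emerged adults that carry two ATM8 copies, compared with 2% DMSO control vials. The paper called compounds neutral at 10–20% such offspring, harmful below 10%, and helpful above 20%.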 Peptide text beside a SMILES is read from it.

These compounds were tested on Drosophila melanogaster ATM8 (temperature-sensitive ATM allele) (assay: fraction of eclosed F1 progeny that are homozygous ATM8 (rescue of developmental lethality); higher = more rescue of ATM8 developmental lethality; extreme values may be limits of the assay). Conditions: compound concentration applied to food 0.2 mM; 21 °C.
With CCN(CC)C(=S)SSC(=S)N(CC)CC the “fraction of eclosed F1 progeny that are homozygous ATM8” value (“fraction” below) was 0.0217.
In the case of C/C(=C(\CCOP(=O)(O)O)SC(=O)c1ccccc1)N(C=O)Cc1cnc(C)nc1N, the “fraction” value is reported as 0.167.
Nc1ncn[nH]1 was tested, and the “fraction” value was 0.147.
In the case of COc1ccc(CN2CCNCC2)c(OC)c1OC, the “fraction” value is reported as 0.25.
With COc1ccc(-c2coc3cc(O)ccc3c2=O)c(OC)c1OC the “fraction” value was 0.13.
Nc1c2c(nc3ccccc13)CCCC2 was tested, and the “fraction” value was 0.25.
For CCCCC(CC)COC(=O)C(C#N)=C(c1ccccc1)c1ccccc1 (stereo not drawn), the “fraction” value was 0.277.
In the case of O=c1cc(-c2ccccc2)oc2cc(O)cc(O)c12, the “fraction” value is reported as 0.109.
CC[C@H]1CN2CC[C@H]1C[C@@H]2[C@@H](O)c1ccnc2ccc(OC)cc12 was tested, and the “fraction” value was 0.0727.
For CC[C@H]1OC(=O)C[C@@H](O)[C@H](C)[C@@H](O[C@@H]2O[C@H](C)[C@@H](O[C@H]3C[C@@](C)(O)[C@@H](O)[C@H](C)O3)[C@H](N(C)C)[C@H]2O)[C@@H](CC=O)C[C@@H](C)C(=O)/C=C/C(C)=C/[C@@H]1CO[C@@H]1O[C@H](C)[C@@H](O)[C@@H](OC)[C@H]1OC, the “fraction” value was 0.2.
With COC(=O)CC1C(C)(C)C(OC(C)=O)[C@@H]2[C@@H](OC(C)=O)[C@]34O[C@@]2(O)[C@]1(C)C3CC[C@]1(C)C4=CC(=O)O[C@H]1c1ccoc1 (stereo partly drawn) the “fraction” value was 0.264.
For CC(C)=CCCC1(C)C=Cc2c(O)c3c(c(CC=C(C)C)c2O1)OC12C(CC4CC1C(C)(C)OC2(C/C=C(/C)C(=O)O)C4O)C3=O (stereo not drawn), the “fraction” value was 0.242.
For CC1(C)O[C@@H]2C[C@H]3[C@@H]4CCC5=CC(=O)C=C[C@]5(C)[C@H]4[C@@H](O)C[C@]3(C)[C@]2(C(=O)CO)O1, the “fraction” value was 0.0185.
In the case of O=C(O)Cc1cc(I)c(Oc2cc(I)c(O)c(I)c2)c(I)c1, the “fraction” value is reported as 0.0833.
CCN(CC)CCOc1ccc2c(c1)C(=O)c1cc(OCCN(CC)CC)ccc1-2 was tested, and the “fraction” value was 0.279.
For CC(=O)N[C@@H](CS)C(=O)O, the “fraction” value was 0.0938.
For CC(C)N(CCC(C(N)=O)(c1ccccc1)c1ccccn1)C(C)C (stereo not drawn), the “fraction” value was 0.0213.
For CC(=O)O[C@H]1C[C@@]2(C)[C@@H](C[C@@H](O)[C@H]3[C@@]4(C)CC[C@@H](O)[C@@H](C)[C@@H]4CC[C@@]32C)/C1=C(\CCC=C(C)C)C(=O)O, the “fraction” value was 0.192.
COc1cccc(-c2cc(=O)c3cc(OC)ccc3o2)c1 was tested, and the “fraction” value was 0.114.
In the case of O=c1cc(-c2ccccc2)oc2cc(O)c(O)c(O)c12, the “fraction” value is reported as 0.189.
For CC(C)CCCC(C)N (stereo not drawn), the “fraction” value was 0.151.
With COc1cc(C2Oc3cc([C@H]4Oc5cc(O)cc(O)c5C(=O)[C@@H]4O)ccc3OC2CO)ccc1O (stereo partly drawn) the “fraction” value was 0.177.
With CC[C@@]1(O)C[C@H](O[C@H]2C[C@H](N(C)C)[C@H](O)[C@H](C)O2)c2c(cc3c(c2O)C(=O)c2c(O)cccc2C3=O)[C@H]1C(=O)OC the “fraction” value was 0.194.
For CCN(CC)CCOC(=O)c1ccc(N)cc1, the “fraction” value was 0.239.
With C[C@H](N)[C@H](O)c1ccc(O)c(O)c1 the “fraction” value was 0.0357.
For CCOC(=O)c1c(C)cc(O)c(C=O)c1O, the “fraction” value was 0.125.
With COc1ccc(-c2coc3c4c(c(CC=C(C)C)c(O)c3c2=O)OC(C)(C)C=C4)cc1 the “fraction” value was 0.122.
For Cc1c(C)c2c(c(C)c1O)CCC(C)(C(=O)O)O2 (stereo not drawn), the “fraction” value was 0.0638.
In the case of CC[C@H](C)C(=O)O[C@H]1C[C@@H](C)C=C2C=C[C@H](C)[C@H](CC[C@@H]3C[C@@H](O)CC(=O)O3)[C@H]21, the “fraction” value is reported as 0.039.
For Oc1cccc2[nH]ccc12, the “fraction” value was 0.0825.
CC(C)C[C@H](N)C(=O)N[C@@H](C)C(=O)O (H-Leu-Ala-OH) was tested, and the “fraction” value was 0.093.
With O=C1CCC[C@@H]2[C@H]3CCC[N+]4([O-])CCC[C@@H](CN12)[C@@H]34 (stereo partly drawn) the “fraction” value was 0.214.
For CC(C)n1c(/C=C/C(O)CC(O)CC(=O)O)c(-c2ccc(F)cc2)c2ccccc21 (stereo not drawn), the “fraction” value was 0.143.
For O=[N+]([O-])O[C@@H]1CO[C@H]2[C@@H]1OC[C@@H]2O, the “fraction” value was 0.0882.
CC(=O)Oc1cc2c(c(C)c1OC(C)=O)CC=C1[C@@]2(C)CC[C@@]2(C)C3C[C@](C)(C(=O)O)CC[C@]3(C)CC[C@]12C (stereo partly drawn) was tested, and the “fraction” value was 0.212.
O=c1c(O)c(-c2ccc(O)cc2)oc2ccccc12 was tested, and the “fraction” value was 0.196.
With CCCCNc1cc(C(=O)O)cc(S(N)(=O)=O)c1Oc1ccccc1 the “fraction” value was 0.138.
With C[C@H](Cn1cnc2c(N)ncnc21)OCP(=O)(O)O the “fraction” value was 0.17.
CC(=O)Oc1ccccc1C(=O)Oc1ccccc1C(=O)O was tested, and the “fraction” value was 0.156.
With NCCCC(O)(P(=O)(O)O)P(=O)(O)O the “fraction” value was 0.125.
In the case of O=C(O)CN(CC(=O)O)Cc1cc2c(cc1O)Oc1cc(O)c(CN(CC(=O)O)CC(=O)O)cc1C21OC(=O)c2ccccc21, the “fraction” value is reported as 0.0909.
For NC(=O)c1ccc(N)nc1, the “fraction” value was 0.129.
With N[C@@H](Cc1ccc(N(CCCl)CCCl)cc1)C(=O)O the “fraction” value was 0.156.
CC1=CC(=O)c2c(O)cccc2C1=O was tested, and the “fraction” value was 0.098.
In the case of CCCCC/C=C/CCC(=O)N[C@H]1[C@H](Oc2c3cc4cc2Oc2ccc(cc2Cl)[C@@H](O[C@@H]2O[C@H](CO)[C@@H](O)[C@H](O)[C@H]2NC(C)=O)[C@@H]2NC(=O)[C@H](NC(=O)[C@@H]4NC(=O)[C@H]4NC(=O)C(Cc5ccc(c(Cl)c5)O3)NC(=O)[C@H](N)c3ccc(O)c(c3)Oc3cc(O)cc4c3)c3ccc(O)c(c3)-c3c(OC4O[C@H](CO)[C@@H](O)[C@H](O)[C@@H]4O)cc(O)cc3[C@@H](C(=O)O)NC2=O)O[C@H](CO)[C@@H](O)[C@@H]1O (stereo partly drawn) [TEICOPLANIN [A(2-1) shown]], the “fraction” value is reported as 0.0435.
COc1ccc(C[C@H](N)C(=O)N[C@H]2[C@@H](O)[C@H](n3cnc4c(N(C)C)ncnc43)O[C@@H]2CO)cc1 was tested, and the “fraction” value was 0.167.
For [O-][n+]1cccc(CO)c1, the “fraction” value was 0.185.
With Cc1ccnc(NS(=O)(=O)c2ccc(N)cc2)n1 the “fraction” value was 0.154.
With NCCNCCNCCN the “fraction” value was 0.
O=C1CN=C(c2ccccc2Cl)c2cc([N+](=O)[O-])ccc2N1 was tested, and the “fraction” value was 0.191.
In the case of O=C(CCc1ccc(O)cc1)c1c(O)cc(O)cc1O[C@@H]1OC(CO)[C@@H](O)[C@@H](O)C1O (stereo partly drawn), the “fraction” value is reported as 0.25.
With CCCCCNC(=N)N/N=C/c1c[nH]c2ccc(OC)cc12 the “fraction” value was 0.178.
With O=C(O)c1ccc(S(=O)(=O)N(Cl)Cl)cc1 the “fraction” value was 0.0952.
O=C(Oc1ccccc1C(=O)O)c1ccccc1O was tested, and the “fraction” value was 0.375.
In the case of COc1c(C)c2c(c(O)c1C/C=C(\C)CCC(=O)O)C(=O)OC2, the “fraction” value is reported as 0.219.
In the case of CC(C)c1ccc2c(c1)CC[C@H]1[C@](C)(CN)CCC[C@]21C, the “fraction” value is reported as 0.231.
With C[C@H]1O[C@H](O[C@H]2[C@H](O)[C@@H](O)[C@@H](O)[C@H](O)[C@@H]2O)[C@@H](N)C[C@@H]1NC(=N)C(=O)O the “fraction” value was 0.0682.
Nc1ccc(C(=O)O)cc1 was tested, and the “fraction” value was 0.129.
CCN1CCCC(OC(=O)C(c2ccccc2)c2ccccc2)C1 (stereo not drawn) was tested, and the “fraction” value was 0.08.
With C[C@H]1O[C@@H](n2cc(F)c(=O)[nH]c2=O)[C@H](O)[C@@H]1O the “fraction” value was 0.163.
In the case of CN(C/C=C/c1ccccc1)Cc1cccc2ccccc12, the “fraction” value is reported as 0.0857.
With C=C1[C@@H]([C@@]2(C)C=CC(=O)C(C)(C)[C@@H]2CC(=O)OC)CC[C@@]2(C)[C@H](c3ccoc3)OC(=O)[C@H]3O[C@]132 the “fraction” value was 0.0851.
In the case of CC(=O)CCCCn1c(=O)c2c(ncn2C)n(C)c1=O, the “fraction” value is reported as 0.143.
For CN1C(=O)OC(C)(C)C1=O, the “fraction” value was 0.0256.
With C[C@@H]1CC[C@@]2(OC1)O[C@H]1C[C@H]3[C@@H]4CC[C@H]5C[C@@H](O)CC[C@]5(C)[C@H]4CC(=O)[C@]3(C)[C@H]1[C@@H]2C the “fraction” value was 0.179.
With CC1(C)O[C@@H]2C[C@H]3[C@@H]4CCC5=CC(=O)CC[C@]5(C)[C@@]4(F)[C@@H](O)C[C@]3(C)[C@]2(C(=O)CCl)O1 the “fraction” value was 0.0531.
With C[C@]12C=CC(=O)C=C1CC[C@H]1[C@@H]3C[C@@H](O)[C@](O)(C(=O)CO)[C@@]3(C)C[C@H](O)[C@@]12F the “fraction” value was 0.152.
Cc1ccc(-c2nc3ccc(C)cn3c2CC(=O)N(C)C)cc1 was tested, and the “fraction” value was 0.283.
C[C@@H]1O[C@@H](OC[C@H]2O[C@@H](Oc3c(-c4ccc(OCCO)c(OCCO)c4)oc4cc(OCCO)cc(O)c4c3=O)[C@H](O)[C@@H](O)[C@@H]2O)[C@H](O)[C@H](O)[C@H]1O was tested, and the “fraction” value was 0.0652.
For CCN(CC)C(=O)/C(C#N)=C/c1cc(O)c(O)c([N+](=O)[O-])c1, the “fraction” value was 0.107.
For C[C@@H](O)[C@H]1C(=O)N2C(C(=O)O)=C(S[C@@H]3CN[C@H](C(=O)N(C)C)C3)[C@H](C)[C@H]12, the “fraction” value was 0.0377.
For CC(=O)O[C@H]1C[C@@H]2CC[C@@H]3[C@H](CC[C@@]4(C)[C@H]3C[C@H]([N+]3(C)CCCCC3)[C@@H]4OC(C)=O)[C@@]2(C)C[C@@H]1N1CCCCC1, the “fraction” value was 0.0612.
With CN1[C@@H]2CC[C@H]1C[C@@H](OC(=O)[C@H](CO)c1ccccc1)C2 the “fraction” value was 0.13.
In the case of Cc1cc(C)cc(OCC2CNC(=O)O2)c1 (stereo not drawn), the “fraction” value is reported as 0.0714.
With COc1ccc(C(=O)O)c(O)c1OC the “fraction” value was 0.306.
With O=C(O)[C@H](O)[C@@H](O)[C@H](O[C@@H]1O[C@H](CO)[C@H](O)[C@H](O)[C@H]1O)[C@H](O)CO the “fraction” value was 0.0303.
In the case of CCCCCC(=O)O[C@]1(C(C)=O)CC[C@H]2[C@@H]3CCC4=CC(=O)CC[C@]4(C)[C@H]3CC[C@@]21C, the “fraction” value is reported as 0.263.
In the case of O=C(O[C@@H]1Cc2c(O)cc(O)cc2O[C@@H]1c1ccc(O)c(O)c1)c1cc(O)c(O)c(O)c1, the “fraction” value is reported as 0.0597.
For OC(c1cc(C(F)(F)F)nc2c(C(F)(F)F)cccc12)C1CCCCN1 (stereo not drawn), the “fraction” value was 0.149.
Cc1coc2c1C(=O)C(=O)c1c-2ccc2c1CCCC2(C)C was tested, and the “fraction” value was 0.183.
With CC[C@H]1OC(=O)C[C@@H](O)[C@H](C)[C@@H](O[C@@H]2O[C@H](C)[C@@H](O)[C@H](N(C)C)[C@H]2O)[C@@H](CCN2C[C@H](C)C[C@H](C)C2)C[C@@H](C)C(=O)/C=C/C(C)=C/[C@@H]1CO[C@@H]1O[C@H](C)[C@@H](O)[C@@H](OC)[C@H]1OC the “fraction” value was 0.1.
With CNCCCC12CCC(c3ccccc31)c1ccccc12 the “fraction” value was 0.0513.
With C=C(C)[C@@H]1CC[C@]2(CO)CC[C@]3(C)[C@H](CC[C@@H]4[C@@]5(C)CC[C@H](O)C(C)(C)[C@@H]5CC[C@]43C)[C@@H]12 the “fraction” value was 0.24.
